Results as given in PubChem BioAssay AID540256 (National Center for Advancing Translational Sciences (NCATS), 2011).
Screen size: about 300,000 compounds; about 3,700 (1.2%) were called active. The inconclusive results got no clear call from the source; some entries with a clear call stand among them for comparison. The call rests on the fitted dose curve; tested in HEK293 cells. Potencies of inconclusive entries are doubtful fits and often do not repeat.

Assay: qHTS for Inhibitors of binding or entry into cells for Lassa Virus; further: nearly all actives have a fitted effect of over 50% in size
Conditions: Lassa virus pseudotype entry inhibition, cell reporter; activity change, negative = inhibition: at 37.9 µM (top of the series) unless noted
On the % scale 0 is the no-effect control and ±100 the full control effect; potency means the concentration at half of the fitted maximal effect.

Row | SMILES | activity change, negative = inhibition | Potency
1 | CN1CCN(S(=O)(=O)Cc2ccc(Cl)cc2)CC1 | inactive: -15.4% [at 46.1 µM] | 
2 | C=CCOc1ccc(/C=C/C(=O)OCC(=O)N(C)C2CCS(=O)(=O)C2)cc1 (centres undefined) |  | inconclusive: 35.5 µM [inhibitor, single point]
3 | Cc1cc(NCCN(C)C)n2nc(-c3cccs3)cc2n1 | inactive: 6.39% | 
4 | Cc1cc(NC(=O)COC(=O)c2c(C)nn(Cc3ccccc3)c2Cl)no1 |  | inconclusive: 18.3 µM [inhibitor, partial curve, poor fit]
5 | CSCc1ccc(C(=O)N2CCCC(Nc3ccc(F)cc3)C2)o1 (centres undefined) | inactive: -2.28% [at 46.1 µM] | 
6 | CCOC(=O)c1c(C)oc2nc(C)nc(NCC3CCN(Cc4ccc(F)cc4)CC3)c12 | inactive: 30% [at 46.1 µM] | 
7 | NC(=O)c1ccc(-c2nc(-c3ccc4c(c3)OCO4)c(-c3ccccn3)[nH]2)cc1 |  | active: 6.28 µM
8 | O=C(NNS(=O)(=O)c1ccc([N+](=O)[O-])cc1)C1CCCCC1 |  | inconclusive: 20 µM [activator, single point]
9 | COc1cc(OC)c(/C=N/NC(N)=S)cc1Br |  | inconclusive: 0.58 µM [inhibitor, single point]
10 | CC(NC(=O)CCCN1C(=O)CCn2nc(-c3cn(C)c4ccccc34)cc21)c1ccccc1 (centres undefined) | inactive: -10.3% [at 46.1 µM] | 
11 | CCOP(=O)(OCC)c1nc(-c2cccc3ccccc23)oc1NCCc1ccc(OC)cc1 |  | inconclusive: 10 µM [inhibitor, partial curve]
12 | COc1ccc(C(=O)Cc2ccc(F)cc2)c(OC)c1 | inactive: 12.6% | 
13 | S=c1[nH]nc(C2CCCCC2)n1/N=C/c1cccc(Br)c1 |  | inconclusive: 8.91 µM [inhibitor, partial curve, poor fit]
14 | CC(C)c1ccc(C(=O)Nc2cccnc2)cc1 |  | inconclusive: 10 µM [inhibitor, partial curve, poor fit]
15 | CC[n+]1c(/C=C2\C=C(C)CC(C)C2)sc2ccccc21 (centres undefined) |  | inconclusive: 35.5 µM [inhibitor, single point]
16 | CNc1ccc(/C=C/C(=O)c2cccc3ccccc23)cc1[N+](=O)[O-] |  | inconclusive: 14.1 µM [inhibitor, single point]
17 | CC(C)(C)c1ccc(C(=O)NNC(=O)c2cccc(Br)c2)cc1 |  | inconclusive: 18.3 µM [inhibitor, single point]
18 | Cc1nn(-c2ccc(N3CCCC3)nn2)c(C)c1CCC(=O)Nc1ccccc1 | inactive: 9.66% [at 46.1 µM] | 
19 | CC1=CC(=O)C(C(C)=Nc2cccc(Cl)c2)C(=O)O1 (centres undefined) | inactive: 5.54% [at 46.1 µM] | 
20 | Cc1ccc(C23CC4CC(CC(NC(=O)NCCN(C)C)(C4)C2)C3)cc1 |  | inconclusive: 29.1 µM [inhibitor, partial curve, poor fit]
21 | Cc1cccc(-c2nc(CS(=O)CC(=O)NCCc3ccccc3)c(C)o2)c1 (centres undefined) | inactive: -0.65% [at 46.1 µM] | 
22 | CCOc1ccc2nc3c(cc2c1)CN(CCCO)C(=NCCOC)S3 |  | inconclusive: 22.4 µM [inhibitor, single point]

Row | SMILES | activity change, negative = inhibition | Potency
23 | CC(=O)Nc1ccc(NC(=O)CSc2nnc(NC(=O)c3ccc(Br)o3)s2)cc1 |  | inconclusive: 35.5 µM [inhibitor, single point]
24 | COc1ccccc1NS(=O)(=O)c1ccc(C)c(C(=O)NC2CCN(Cc3ccccc3)CC2)c1 |  | inconclusive: 5.01 µM [inhibitor, full curve, poor fit]
25 | CC(C)NC(=O)Cn1cc(S(=O)(=O)N2CCCC2)c(S(=O)(=O)N2CCCC2)c1 |  | inconclusive: 20 µM [activator, single point]
26 | Cn1cc(CC(=O)NCc2ccc(F)cc2)c2ccccc21 | inactive: 0.68% | 
27 | Cc1cc(NC(=O)CSc2nc3c(c(=O)n2-c2ccc(Br)cc2)SCC3)no1 |  | inconclusive: 11.6 µM [inhibitor, partial curve, poor fit]
28 | Cc1cccc2nc(=S)n(C(=O)c3ccco3)n12 | inactive: 121% [at 14.3 µM] | 
29 | N#Cc1c(N2CCN(c3ccc([N+](=O)[O-])cc3)CC2)[n+](=O)c2ccc(Cl)cc2n1[O-] |  | active: 10 µM
30 | CC(C)c1nc2oc3c(N4CCN(C)CC4)ncnc3c2c2c1CCC2 |  | inconclusive: 3.26 µM [inhibitor, full curve]
31 | O=C(NCc1ccccc1Cl)C(=O)NCC1OCCN1S(=O)(=O)c1ccc(F)cc1 (centres undefined) | inactive: 4.2% | 
32 | Cc1cc(C(=O)CCl)c(C)n1CCc1ccc(Cl)cc1 |  | inconclusive: 10 µM [inhibitor, partial curve, poor fit]
33 | COc1ccc(CNc2nc(NCc3ccc(OC)cc3)n(C(=O)c3ccccc3[N+](=O)[O-])n2)cc1 |  | active: 4.11 µM
34 | CCOc1ccc(C(=O)Nc2ccc(NC(=O)c3ccccc3)cc2)cc1Br |  | inconclusive: 35.5 µM [inhibitor, single point]
35 | Cc1ccc(S(=O)(=O)N2CCCc3cc(NS(=O)(=O)c4ccccc4)ccc32)cc1 |  | active: 10 µM
36 | CC(C)Cn1c([N+](=O)[O-])nc2c1c(=O)[nH]c(=O)n2C |  | active: 7.08 µM
37 | COC(=O)c1ccc([C@H]2Nc3ccc(S(=O)(=O)Nc4ccc(F)cc4)cc3[C@H]3C=CC[C@H]32)cc1 | inactive: 16% [at 46.1 µM] | 
38 | CCN(Cc1ccccc1)S(=O)(=O)c1ccc(C(=O)N(CCCN(C)C)c2nc3cc4c(cc3s2)OCO4)cc1 |  | inconclusive: 25.1 µM [inhibitor, single point]
39 | COC(=O)c1ccc(COC(=O)c2c(C)nn(Cc3ccccc3Cl)c2Cl)o1 |  | inconclusive: 9.2 µM [inhibitor, partial curve, poor fit]
40 | Cc1ccc(C(=O)NCCN2CCOCC2)cc1 |  | inconclusive: 4.11 µM [activator, full curve, poor fit]
41 | O=C(Nc1ccc(Cl)c(Cl)c1)N(Cc1c[nH]c2ccccc12)C1CCCCC1 |  | inconclusive: 0.562 µM [inhibitor, full curve, poor fit]
42 | Cc1ccc(-n2nnnc2SCC(=O)N2CCc3ccccc3C2)cc1 |  | inconclusive: 18.3 µM [inhibitor, partial curve, poor fit]
43 | Cc1ccc(NC(=O)CNCc2ccccc2Cl)cc1S(=O)(=O)N(C)C |  | inconclusive: 5.01 µM [activator, single point]
44 | COc1cccc(/C=N/NC(=S)NCc2ccco2)c1OC |  | inconclusive: 7.94 µM [inhibitor, partial curve, poor fit]

Structural class: the entries above containing an aryl thioether with sulfur outside any ring.
Row | SMILES | activity change, negative = inhibition | Potency
23 | CC(=O)Nc1ccc(NC(=O)CSc2nnc(NC(=O)c3ccc(Br)o3)s2)cc1 |  | inconclusive: 35.5 µM [inhibitor, single point]
27 | Cc1cc(NC(=O)CSc2nc3c(c(=O)n2-c2ccc(Br)cc2)SCC3)no1 |  | inconclusive: 11.6 µM [inhibitor, partial curve, poor fit]
42 | Cc1ccc(-n2nnnc2SCC(=O)N2CCc3ccccc3C2)cc1 |  | inconclusive: 18.3 µM [inhibitor, partial curve, poor fit]
